# Results taken from the supplement of paper PMC10849652.
# Sequences of proteins named here, by UniProt entry; tags and fusion partners are left off. A change or cut given only in a name is not applied to a line headed by its entry.
# UniProt Q9H496: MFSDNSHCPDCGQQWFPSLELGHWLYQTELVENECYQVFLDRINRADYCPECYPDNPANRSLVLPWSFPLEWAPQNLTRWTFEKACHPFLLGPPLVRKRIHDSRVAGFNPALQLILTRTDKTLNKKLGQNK
# UniProt Q5JTV8: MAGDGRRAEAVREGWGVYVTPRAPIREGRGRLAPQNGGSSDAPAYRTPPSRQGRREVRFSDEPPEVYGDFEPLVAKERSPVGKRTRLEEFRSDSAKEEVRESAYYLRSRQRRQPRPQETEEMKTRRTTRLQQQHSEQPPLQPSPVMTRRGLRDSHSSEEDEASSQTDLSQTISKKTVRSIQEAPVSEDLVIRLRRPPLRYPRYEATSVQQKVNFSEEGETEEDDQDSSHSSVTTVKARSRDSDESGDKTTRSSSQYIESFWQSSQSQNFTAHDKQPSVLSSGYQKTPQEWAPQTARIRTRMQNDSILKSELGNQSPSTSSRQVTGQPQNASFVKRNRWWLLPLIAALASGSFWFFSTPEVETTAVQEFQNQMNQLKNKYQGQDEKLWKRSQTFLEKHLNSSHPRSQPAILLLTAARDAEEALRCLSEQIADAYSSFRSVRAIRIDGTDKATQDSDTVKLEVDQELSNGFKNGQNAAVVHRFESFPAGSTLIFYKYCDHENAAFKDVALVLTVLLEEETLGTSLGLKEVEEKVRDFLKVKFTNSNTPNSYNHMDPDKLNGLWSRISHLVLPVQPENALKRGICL
# UniProt Q969M1: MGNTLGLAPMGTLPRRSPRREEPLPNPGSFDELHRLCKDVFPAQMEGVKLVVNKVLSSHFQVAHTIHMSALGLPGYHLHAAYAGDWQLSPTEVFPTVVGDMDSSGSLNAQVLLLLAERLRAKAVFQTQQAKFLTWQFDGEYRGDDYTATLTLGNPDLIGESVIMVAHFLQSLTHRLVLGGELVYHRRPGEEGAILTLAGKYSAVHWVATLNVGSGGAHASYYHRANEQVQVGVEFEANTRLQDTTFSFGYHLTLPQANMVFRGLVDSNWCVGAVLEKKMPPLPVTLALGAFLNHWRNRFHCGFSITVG
# UniProt P63313: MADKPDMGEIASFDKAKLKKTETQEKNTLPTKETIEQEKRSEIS
# UniProt Q13641: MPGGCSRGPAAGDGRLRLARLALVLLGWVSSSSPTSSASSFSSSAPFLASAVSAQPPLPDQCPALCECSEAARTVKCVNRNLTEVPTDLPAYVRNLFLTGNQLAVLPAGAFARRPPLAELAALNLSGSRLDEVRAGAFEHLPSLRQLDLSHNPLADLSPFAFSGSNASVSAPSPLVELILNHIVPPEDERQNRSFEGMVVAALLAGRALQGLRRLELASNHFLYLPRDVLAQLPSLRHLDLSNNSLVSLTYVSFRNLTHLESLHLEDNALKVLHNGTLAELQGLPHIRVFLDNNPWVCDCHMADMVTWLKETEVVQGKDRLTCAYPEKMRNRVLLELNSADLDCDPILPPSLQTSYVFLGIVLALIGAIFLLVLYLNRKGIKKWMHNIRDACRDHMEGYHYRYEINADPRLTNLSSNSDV
# UniProt Q9BTV4: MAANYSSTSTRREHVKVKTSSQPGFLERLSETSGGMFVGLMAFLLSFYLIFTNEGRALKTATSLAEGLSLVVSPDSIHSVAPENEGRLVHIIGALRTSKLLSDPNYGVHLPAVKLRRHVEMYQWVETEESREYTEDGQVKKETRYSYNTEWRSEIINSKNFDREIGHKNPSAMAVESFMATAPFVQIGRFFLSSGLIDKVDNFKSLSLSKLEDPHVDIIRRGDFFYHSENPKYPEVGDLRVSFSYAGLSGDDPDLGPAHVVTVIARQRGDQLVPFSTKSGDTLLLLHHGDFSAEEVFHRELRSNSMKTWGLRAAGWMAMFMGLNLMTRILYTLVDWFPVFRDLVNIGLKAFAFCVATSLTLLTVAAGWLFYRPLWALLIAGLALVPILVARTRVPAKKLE
# UniProt O96008: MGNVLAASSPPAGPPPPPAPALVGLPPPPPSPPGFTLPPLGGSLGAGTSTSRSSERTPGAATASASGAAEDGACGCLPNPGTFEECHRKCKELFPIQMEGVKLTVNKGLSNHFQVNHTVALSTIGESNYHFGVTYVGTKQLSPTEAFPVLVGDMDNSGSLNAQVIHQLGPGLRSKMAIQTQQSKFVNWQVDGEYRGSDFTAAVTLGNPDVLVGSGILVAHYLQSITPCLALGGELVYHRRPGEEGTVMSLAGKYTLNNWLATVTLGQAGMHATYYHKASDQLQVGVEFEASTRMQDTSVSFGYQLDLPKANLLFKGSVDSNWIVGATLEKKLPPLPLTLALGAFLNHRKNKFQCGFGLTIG
# UniProt Q96A57: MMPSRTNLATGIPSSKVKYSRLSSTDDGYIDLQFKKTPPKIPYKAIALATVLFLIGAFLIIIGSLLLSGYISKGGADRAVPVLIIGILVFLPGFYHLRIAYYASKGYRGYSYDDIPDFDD
# UniProt Q9BVT8: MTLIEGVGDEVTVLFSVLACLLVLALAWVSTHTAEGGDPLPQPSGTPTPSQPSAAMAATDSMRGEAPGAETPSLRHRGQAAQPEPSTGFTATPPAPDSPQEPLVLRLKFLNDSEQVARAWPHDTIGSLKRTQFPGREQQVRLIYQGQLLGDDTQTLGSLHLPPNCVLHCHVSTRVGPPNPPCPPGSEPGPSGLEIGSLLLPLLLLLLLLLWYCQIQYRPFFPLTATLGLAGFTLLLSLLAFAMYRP
# UniProt Q8N4H5: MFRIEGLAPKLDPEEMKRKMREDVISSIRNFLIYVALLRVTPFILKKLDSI
# UniProt O60704: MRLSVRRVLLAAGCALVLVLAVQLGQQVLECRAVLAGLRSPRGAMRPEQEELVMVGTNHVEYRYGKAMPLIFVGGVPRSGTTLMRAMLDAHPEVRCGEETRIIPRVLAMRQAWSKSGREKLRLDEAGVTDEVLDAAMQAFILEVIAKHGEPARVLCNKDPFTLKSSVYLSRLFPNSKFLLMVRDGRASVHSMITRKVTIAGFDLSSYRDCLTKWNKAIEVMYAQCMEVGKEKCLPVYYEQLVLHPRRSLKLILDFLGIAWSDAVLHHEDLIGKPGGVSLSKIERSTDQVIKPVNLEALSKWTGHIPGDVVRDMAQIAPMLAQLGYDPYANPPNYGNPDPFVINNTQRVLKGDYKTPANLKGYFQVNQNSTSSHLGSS
# UniProt Q8NCS4: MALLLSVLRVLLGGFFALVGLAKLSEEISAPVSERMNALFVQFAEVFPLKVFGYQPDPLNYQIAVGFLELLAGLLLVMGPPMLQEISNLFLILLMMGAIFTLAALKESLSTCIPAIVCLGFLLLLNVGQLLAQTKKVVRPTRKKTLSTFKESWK
# UniProt Q92547, whole entry, looked up: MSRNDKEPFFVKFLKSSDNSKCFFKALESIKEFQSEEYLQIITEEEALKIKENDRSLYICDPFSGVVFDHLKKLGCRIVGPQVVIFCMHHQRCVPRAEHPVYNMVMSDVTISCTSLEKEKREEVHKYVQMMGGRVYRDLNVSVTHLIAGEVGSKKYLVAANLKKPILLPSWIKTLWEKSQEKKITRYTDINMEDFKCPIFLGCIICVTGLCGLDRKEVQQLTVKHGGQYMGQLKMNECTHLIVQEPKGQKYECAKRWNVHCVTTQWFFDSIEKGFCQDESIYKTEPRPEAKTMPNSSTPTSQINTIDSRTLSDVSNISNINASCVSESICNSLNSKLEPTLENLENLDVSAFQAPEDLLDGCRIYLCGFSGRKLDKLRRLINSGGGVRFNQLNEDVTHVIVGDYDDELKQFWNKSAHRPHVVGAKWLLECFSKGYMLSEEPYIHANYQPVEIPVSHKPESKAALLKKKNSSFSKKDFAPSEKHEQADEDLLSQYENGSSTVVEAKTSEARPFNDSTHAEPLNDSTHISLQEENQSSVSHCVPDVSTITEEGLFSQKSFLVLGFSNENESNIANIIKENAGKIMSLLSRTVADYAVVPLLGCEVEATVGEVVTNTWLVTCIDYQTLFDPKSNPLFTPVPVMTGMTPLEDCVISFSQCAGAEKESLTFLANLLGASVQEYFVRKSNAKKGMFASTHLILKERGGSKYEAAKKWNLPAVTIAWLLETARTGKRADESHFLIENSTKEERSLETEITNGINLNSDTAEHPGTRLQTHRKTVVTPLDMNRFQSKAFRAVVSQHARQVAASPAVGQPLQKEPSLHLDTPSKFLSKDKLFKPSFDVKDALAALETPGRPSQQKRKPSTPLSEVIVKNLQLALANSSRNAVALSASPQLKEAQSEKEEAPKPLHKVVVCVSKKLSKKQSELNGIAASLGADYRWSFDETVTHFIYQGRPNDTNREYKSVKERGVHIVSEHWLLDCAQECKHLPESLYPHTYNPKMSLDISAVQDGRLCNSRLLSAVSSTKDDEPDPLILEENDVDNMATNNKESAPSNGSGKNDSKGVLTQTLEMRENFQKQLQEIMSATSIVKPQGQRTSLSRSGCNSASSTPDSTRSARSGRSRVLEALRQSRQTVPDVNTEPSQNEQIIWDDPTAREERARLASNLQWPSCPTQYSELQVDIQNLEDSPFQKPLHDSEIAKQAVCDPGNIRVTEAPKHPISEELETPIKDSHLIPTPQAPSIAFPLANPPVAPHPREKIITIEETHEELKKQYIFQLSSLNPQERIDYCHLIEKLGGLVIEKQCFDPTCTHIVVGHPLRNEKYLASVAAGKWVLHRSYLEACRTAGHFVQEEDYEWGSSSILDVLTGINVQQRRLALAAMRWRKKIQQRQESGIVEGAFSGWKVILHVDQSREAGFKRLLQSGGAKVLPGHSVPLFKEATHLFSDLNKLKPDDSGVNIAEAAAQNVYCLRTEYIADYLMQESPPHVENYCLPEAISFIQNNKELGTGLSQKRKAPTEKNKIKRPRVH
# UniProt Q96HA7: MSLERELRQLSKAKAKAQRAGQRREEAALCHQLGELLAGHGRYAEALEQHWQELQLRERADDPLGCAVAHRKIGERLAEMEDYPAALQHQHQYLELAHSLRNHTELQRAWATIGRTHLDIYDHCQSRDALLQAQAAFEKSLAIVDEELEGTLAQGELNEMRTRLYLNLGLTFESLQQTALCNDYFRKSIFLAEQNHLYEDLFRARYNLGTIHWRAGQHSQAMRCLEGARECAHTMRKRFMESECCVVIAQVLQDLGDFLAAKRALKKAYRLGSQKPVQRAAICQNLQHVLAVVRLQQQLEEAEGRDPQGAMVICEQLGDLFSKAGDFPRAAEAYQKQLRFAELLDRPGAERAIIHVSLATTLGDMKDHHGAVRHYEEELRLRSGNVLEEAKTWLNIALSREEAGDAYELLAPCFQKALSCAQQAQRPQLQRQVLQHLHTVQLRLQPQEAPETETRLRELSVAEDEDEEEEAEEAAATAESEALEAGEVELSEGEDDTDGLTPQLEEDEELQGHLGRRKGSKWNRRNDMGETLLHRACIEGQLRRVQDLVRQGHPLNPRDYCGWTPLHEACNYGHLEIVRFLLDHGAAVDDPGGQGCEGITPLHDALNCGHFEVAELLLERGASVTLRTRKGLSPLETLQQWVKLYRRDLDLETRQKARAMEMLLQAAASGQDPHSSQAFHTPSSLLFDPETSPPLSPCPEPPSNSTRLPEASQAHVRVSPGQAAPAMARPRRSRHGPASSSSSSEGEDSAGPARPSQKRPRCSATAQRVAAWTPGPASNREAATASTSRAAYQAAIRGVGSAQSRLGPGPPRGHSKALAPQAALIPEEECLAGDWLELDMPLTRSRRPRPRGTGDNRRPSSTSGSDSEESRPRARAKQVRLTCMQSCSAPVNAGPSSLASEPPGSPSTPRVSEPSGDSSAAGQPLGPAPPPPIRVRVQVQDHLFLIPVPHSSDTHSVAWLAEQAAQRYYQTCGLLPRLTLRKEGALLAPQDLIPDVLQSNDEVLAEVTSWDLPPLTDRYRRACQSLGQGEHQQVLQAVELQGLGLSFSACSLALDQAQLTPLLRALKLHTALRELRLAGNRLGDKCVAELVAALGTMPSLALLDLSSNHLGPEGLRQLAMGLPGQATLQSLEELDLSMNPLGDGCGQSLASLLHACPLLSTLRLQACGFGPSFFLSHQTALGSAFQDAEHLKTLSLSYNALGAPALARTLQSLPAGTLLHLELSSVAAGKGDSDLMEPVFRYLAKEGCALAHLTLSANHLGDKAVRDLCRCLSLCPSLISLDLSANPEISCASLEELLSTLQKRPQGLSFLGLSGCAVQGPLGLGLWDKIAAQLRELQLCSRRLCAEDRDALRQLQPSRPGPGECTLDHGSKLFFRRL
# UniProt P06753, whole entry, looked up: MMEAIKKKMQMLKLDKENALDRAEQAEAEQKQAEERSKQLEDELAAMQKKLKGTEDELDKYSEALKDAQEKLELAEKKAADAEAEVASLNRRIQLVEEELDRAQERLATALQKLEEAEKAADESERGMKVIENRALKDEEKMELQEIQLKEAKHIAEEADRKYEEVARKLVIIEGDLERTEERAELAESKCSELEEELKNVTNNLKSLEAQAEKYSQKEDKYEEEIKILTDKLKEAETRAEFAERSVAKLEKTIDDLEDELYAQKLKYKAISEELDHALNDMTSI
# UniProt O43399: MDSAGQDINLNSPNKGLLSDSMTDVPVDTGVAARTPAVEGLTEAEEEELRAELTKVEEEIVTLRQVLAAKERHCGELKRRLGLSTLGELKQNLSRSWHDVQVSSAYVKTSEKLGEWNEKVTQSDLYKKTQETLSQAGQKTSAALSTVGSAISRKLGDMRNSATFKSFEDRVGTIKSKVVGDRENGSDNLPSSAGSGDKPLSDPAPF
# The list shows a part of the results.
# Compound: NCC(=O)Nc1ccc(-n2nc(C(F)(F)F)cc2-c2ccc3c(ccc4ccccc43)c2)cc1
# Assay: log2 fold change, soluble protein after heating vs DMSO (PISA); higher = thermal stabilisation; K562 lysate, 10 uM; active = over 0.2 and 3.5 SD of the protein, either way, in both replicates (recomputed)
# Method in brief: (§1)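 Pellets of K562 cells were dounce-homogenised in PBS pH 7.4 with 1 mM MgCl2, and the crude extract was held at 1 mg/mL protein for a 30 min treatment with 10 μM compound. Aliquots were heated for 3 min over 48°C-58°C and pooled before NP-40 was added to 0.5% at 4°C. The supernatant from 21,000xg for 90 min was quantified by TMTpro 16plex LC-MS/MS with channel sums equalised. Values are reported from duplicates as log-two fold change in thermal stability relative to solvent controls.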
row,Target,log2 fold change
1,TPCN1 isoform 3 (UniProt Q9ULQ1),inactive: 0.198
2,TPR (UniProt P12270),inactive: 0.02
3,TOR1AIP2 (UniProt Q9H496),inactive: 0.123
4,TNIK (UniProt C9J338),inactive: 0.195
5,TOR1AIP1 (UniProt Q5JTV8),inactive: -0.042
6,TMX2 (UniProt Q9Y320),inactive: -0.008
7,TOMM22 (UniProt Q9NS69),inactive: -0.025
8,TMEM9 (UniProt Q9P0T7),inactive: 0.018
9,TNPO1 (UniProt Q92973),inactive: -0.024
10,TOMM40L (UniProt Q969M1),inactive: -0.033
11,TMSB10 (UniProt P63313),inactive: 0.028
12,TOLLIP (UniProt Q9H0E2),inactive: -0.015
13,TPBG (UniProt Q13641),inactive: 0.146
14,TMPO (UniProt P42167),inactive: 0.021
15,TMEM43 (UniProt Q9BTV4),inactive: -0.006
16,TPM4 isoform 2 (UniProt P67936),inactive: 0.02
17,TMEM68 (UniProt Q96MH6),inactive: -0.056
18,TOMM40 (UniProt O96008),inactive: 0.033
19,TOR1AIP2 (UniProt Q8NFQ8),inactive: -0.013
20,TMEM230 isoform 2 (UniProt Q96A57),inactive: 0.066

row,Target,log2 fold change
1,TMUB1 (UniProt Q9BVT8),inactive: -0.128
2,TMOD2 (UniProt Q9NZR1),inactive: 0.036
3,TMEM245 (UniProt Q9H330),inactive: 0.012
4,TOMM5 (UniProt Q8N4H5),inactive: -0.039
5,TPST2 (UniProt O60704),inactive: 0.045
6,TNPO3 (UniProt Q9Y5L0),inactive: 0.017
7,TMEM35B (UniProt Q8NCS4),inactive: 0.067
8,TOPBP1 (UniProt Q92547),inactive: 0.032
9,TPP2 (UniProt Q5VZU9),inactive: -0.125
10,TONSL (UniProt Q96HA7),inactive: -0.001
11,TPM3 isoform 3 (UniProt P06753),inactive: -0.111
12,TOX4 (UniProt O94842),inactive: -0.021
13,TMEM9B (UniProt Q9NQ34),inactive: 0.111
14,TPM3 (UniProt P06753),inactive: 0.004
15,TPD52L2 isoform 7 (UniProt O43399),inactive: -0.043
16,TMEM97 (UniProt Q5BJF2),inactive: -0.016
17,TNFAIP8 isoform 4 (UniProt O95379),inactive: 0.097
18,TOP2B isoform 2 (UniProt Q02880),inactive: -0.027
19,TPM3 isoform 2 (UniProt P06753),inactive: -0.032
20,TOR1AIP1 isoform 3 (UniProt Q5JTV8),inactive: -0.01

# Compound: O=C(CCCCCCC(=O)Nc1ccccc1)NO [vorinostat]
# Assay: as above
# Method in brief: as §1
row,Target,log2 fold change
1,TPCN1 isoform 3 (UniProt Q9ULQ1),inactive: 0.069
2,TPR (UniProt P12270),inactive: 0.092
3,TOR1AIP2 (UniProt Q9H496),inactive: -0.125
4,TNIK (UniProt C9J338),inactive: 0.103
5,TOR1AIP1 (UniProt Q5JTV8),inactive: 0.194
6,TMX2 (UniProt Q9Y320),inactive: 0.085
7,TOMM22 (UniProt Q9NS69),inactive: 0.181
8,TMEM9 (UniProt Q9P0T7),inactive: 0.043
9,TNPO1 (UniProt Q92973),inactive: -0.169
10,TOMM40L (UniProt Q969M1),inactive: 0.061
11,TMSB10 (UniProt P63313),inactive: 0.254
12,TOLLIP (UniProt Q9H0E2),inactive: -0.193
13,TPBG (UniProt Q13641),inactive: 0.135
14,TMPO (UniProt P42167),inactive: 0.104
15,TMEM43 (UniProt Q9BTV4),inactive: 0.138
16,TPM4 isoform 2 (UniProt P67936),inactive: 0.082
17,TMEM68 (UniProt Q96MH6),inactive: 0.07
18,TOMM40 (UniProt O96008),inactive: 0.1
19,TOR1AIP2 (UniProt Q8NFQ8),inactive: 0.164
20,TMEM230 isoform 2 (UniProt Q96A57),inactive: -0.028

row,Target,log2 fold change
1,TMUB1 (UniProt Q9BVT8),inactive: 0.075
2,TMOD2 (UniProt Q9NZR1),inactive: 0.084
3,TMEM245 (UniProt Q9H330),inactive: 0.089
4,TOMM5 (UniProt Q8N4H5),inactive: 0.076
5,TPST2 (UniProt O60704),inactive: 0.132
6,TNPO3 (UniProt Q9Y5L0),active: -0.317
7,TMEM35B (UniProt Q8NCS4),inactive: 0.092
8,TOPBP1 (UniProt Q92547),active: -0.387
9,TPP2 (UniProt Q5VZU9),inactive: -0.173
10,TONSL (UniProt Q96HA7),inactive: -0.128
11,TPM3 isoform 3 (UniProt P06753),inactive: 0.048
12,TOX4 (UniProt O94842),inactive: -0.018
13,TMEM9B (UniProt Q9NQ34),inactive: -0.135
14,TPM3 (UniProt P06753),inactive: 0.112
15,TPD52L2 isoform 7 (UniProt O43399),inactive: 0.148
16,TMEM97 (UniProt Q5BJF2),inactive: 0.152
17,TNFAIP8 isoform 4 (UniProt O95379),inactive: -0.048
18,TOP2B isoform 2 (UniProt Q02880),inactive: -0.061
19,TPM3 isoform 2 (UniProt P06753),inactive: 0.048
20,TOR1AIP1 isoform 3 (UniProt Q5JTV8),inactive: 0.113
